From PubChem BioAssay AID590 (National Center for Advancing Translational Sciences (NCATS), 2007)
About 6,500 (11%) of roughly 59,000 compounds were called active. This list was built around the results that the source calls inconclusive (neither active nor inactive); the mix of calls is not that of the screen. Rule as the data show it: active = max dye-equivalent concentration above about 10 nM; inconclusive = mostly about 1.1 nM to 9.6 nM; inactive = weaker than that.

Assay: qHTS Assay for Spectroscopic Profiling in A350 Spectral Region
Conditions: Compound autofluorescence, 340/450 nm, Alexa 350 dye-equivalents; hits give high values

SMILES	max dye-equivalent concentration
COc1ccccc1N1CCN(C(=O)CN(c2cc(C)cc(C)c2)S(C)(=O)=O)CC1	inactive
CCC(C)(C)n1nnnc1C(c1cc2cc(C)cc(C)c2[nH]c1=O)N1CCCC1 (stereo unspecified)	active: 11 nM
O=c1c(-c2cccs2)nc2cnc(Oc3cccc(Cl)c3)nc2n1C[C@H]1CCCO1	active: 42 nM
C=C(C)Cn1c(CCCNC(=O)CCC)nc2ccccc21	inactive
Cn1c(=NC(=O)C2CCN(S(=O)(=O)c3cccs3)CC2)sc2ccccc21	inconclusive: 1.8 nM
Cc1ccc(C)c(-n2c(SCC(=O)Nc3nnc(C)s3)nnc2-c2ccoc2C)c1	inactive
CC1=CC(=O)CC(C)(C)[C@]1(O)/C=C\C(C)=C\C(=O)O	inactive
CS(=O)(=O)Nc1ccc(Nc2c3ccccc3nc3ccccc23)cc1	active: 110 nM
Cc1sc2nc3n(c(=O)c2c1C)NC(=O)CC3	inconclusive: 1.6 nM
Cc1ccccc1CSc1nncn1N	inconclusive: 1.1 nM
CCN(CC)CCCNC(=O)C1c2ccccc2C(=O)N1Cc1ccc(C)cc1 (stereo unspecified)	inconclusive: 1.3 nM
Nc1cc(N)cc(-c2nc3ccccc3[nH]2)c1	inconclusive: 1.4 nM
CCOc1ccc(C(C)C)cc1S(=O)(=O)n1nc(C)cc1C	inactive
COc1ccc2cc(C(=O)CCC(=O)O)ccc2c1	active: 50 nM
Cc1nc2cnc(N(C)C)nc2n(C)c1=O	inconclusive: 8.9 nM
COC(=O)Cc1cc(=O)n(-c2ccccc2)[nH]1	inconclusive: 1.3 nM
CC(C)CCOc1ccc(Cl)cc1CN1CCOCC1	inconclusive: 1.6 nM
Cn1c(-c2ccc3ccccc3n2)nc2cnccc21	inconclusive: 7.5 nM
Cc1nnc(SCC(=O)NC(=O)NC(C)(C)C)n1N	inconclusive: 3.3 nM
COc1ccc(-c2nc3cnc(N4CCNCC4)nc3n(Cc3cccc(OC)c3)c2=O)cc1	inconclusive: 6.7 nM
CN(C)C(CNC(=O)CSc1nnc(-c2ccco2)o1)c1ccccc1 (stereo unspecified)	inconclusive: 1.6 nM
CCCSc1nc2c(c(=O)n1-c1ccc(OCC)cc1)SCC2	inconclusive: 1.6 nM
CCCCN(C(=O)CN1C(=O)C2CC=CCC2C1=O)c1c(N)n(CCC)c(=O)[nH]c1=O (stereo unspecified)	inconclusive: 1.2 nM

SMILES	max dye-equivalent concentration
COc1ccc(S(=O)(=O)NC(C(C)C)C(C)C)cc1OC	inconclusive: 2.3 nM
Cc1ccc(-c2nnc3c4ccccc4c(C)nn23)cc1S(=O)(=O)N1CCN(CCO)CC1	inactive
O=C(CN(c1ccc(F)cc1)S(=O)(=O)c1ccc2c(c1)OCCO2)Nc1cccnc1	inactive
Cc1cccc2cc(CN(CCc3ccccc3)C(=O)N3CCOCC3)c3nnnn3c12	inactive
COc1cccc(OC)c1OCCCSc1nc(C)cc(=O)[nH]1	inactive
CCN(CC)S(=O)(=O)c1ccc(NC2c3ncccc3C(=O)N2Cc2ccccc2)cc1 (stereo unspecified)	active: 12 nM
COc1ccc(NC(=O)c2oc3ccccc3c2NC(=O)c2ccc(OC)c(OC)c2)c(OC)c1	active: 52 nM
COC(=O)c1sc2ccccc2c1NC(=O)c1cccs1	inactive
CC1CCCc2sc3nc(N4CCN(CCO)CC4)n4ncnc4c3c21 (stereo unspecified)	inconclusive: 3.1 nM
Nc1nc2c3ccccc3nc(Cc3ccccc3)n2n1	inactive
COC(=O)c1c(NC(=O)c2ccco2)sc(C(=O)N2CCCC2)c1C	inconclusive: 4.2 nM
Cn1c(=NC(=O)c2cnccn2)sc2ccccc21	inconclusive: 1.5 nM
CCn1c(SCC(=O)N(C(C)C)C(C)C)nnc1-c1cc2ccccc2cc1O	inconclusive: 4.1 nM
NCc1ccccc1CC(=O)N[C@@H]1C(=O)N2C(C(=O)O)=C(CSc3nnnn3CC(=O)O)CS[C@@H]12	inconclusive: 6.5 nM
O=C(CN1CCN(C(c2ccccc2)c2ccccc2)CC1)NC(=O)NCc1ccco1	inactive
CCN(CC)S(=O)(=O)c1cccc(C(=O)OCc2cc(=O)n3nc(C)sc3n2)c1	active: 30 nM
NCCN1CCN(CCN)CC1	inconclusive: 1.1 nM
COc1cc(N2CCOCC2)ncn1	inactive
COC(=O)c1sccc1NC(=O)c1cc(C)on1	inconclusive: 2.3 nM
CCCC(=O)Nc1ccc(N2CCN(C(=O)c3cccs3)CC2)cc1	inactive
O=S(=O)(O)c1ccc2c(N=Nc3c(O)ccc4ccccc34)cccc2c1	inactive
CCc1ccc(S(=O)(=O)NCc2cn3ccccc3n2)s1	inconclusive: 8.9 nM
COC(=O)c1ccc(Cn2c(CN3CCOCC3)nc3ccccc3c2=O)o1	inconclusive: 1.5 nM

Three of these compounds in another layout:
SMILES,max dye-equivalent concentration
Cn1c(=NC(=O)c2cnccn2)sc2ccccc21,inconclusive: 1.5 nM
CCn1c(SCC(=O)N(C(C)C)C(C)C)nnc1-c1cc2ccccc2cc1O,inconclusive: 4.1 nM
NCc1ccccc1CC(=O)N[C@@H]1C(=O)N2C(C(=O)O)=C(CSc3nnnn3CC(=O)O)CS[C@@H]12,inconclusive: 6.5 nM
